Laboratory results: the supplement of paper PMC9454738
Structures can show the parent of a compound that is named as a salt. ± gives the standard deviation of the averaged measurements. Some of the results follow. Single values are uncertain here, since repeats match poorly.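 Triple-negative MDA-MB-231 breast cancer cells and their brain-metastatic MDA-MB-231BRM derivative each stably expressed empty vector, full-length GLI1 or truncated tGLI1. CellTiter-Blue measured viability at 48 h relative to 1% DMSO vehicle. Compounds reducing viability 20% more in tGLI1 cells than in vector and GLI1 cells counted as tGLI1-selective.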

The compounds below were run on MDA-MB-231BRM GLI1 (assay: cell viability relative to vehicle (DMSO) control (fraction); higher = more viable cells (less growth inhibition)). Settings: 5 µM; treatment time 48 h.

SMILES | cell viability
C[C@H]1[C@H](C)CC[C@]2(C(=O)O)CC[C@]3(C)C(=CC[C@@H]4[C@@]5(C)C[C@@H](O)[C@H](O)[C@@](C)(CO)[C@@H]5CC[C@]43C)[C@H]12 [Asiatic Acid] | 1
O=C1NC(=O)C(c2ccccc2[N+](=O)[O-])=C1Nc1ccc(O)c(Cl)c1 | 0.868
Cc1c(Cn2c(C)nc3c(C(=O)O)cc(N4CCOCC4)cc32)cccc1C(F)(F)F | 0.5
Cc1ccc(NC(=O)c2ccc(CN3CCN(C)CC3)cc2)cc1Nc1nccc(-c2cccnc2)n1 [Imatinib (STI571)] | 0.757
CCC(=O)NCC[C@@H]1CCc2ccc3c(c21)CCO3 [Ramelteon (TAK-375)] | 0.963
NC(=O)Nc1cc(-c2cccc(F)c2)sc1C(=O)N[C@H]1CCCNC1 | 0.995
COc1cc2ncnc(Oc3ccc(CC(=O)Nc4cnn(C(C)C)c4)cc3)c2cc1OC | 0.668
CC(C)(C)NS(=O)(=O)c1cncc(-c2cc(F)c3nc(N)nn3c2)c1 | 0.865
O=C(Nc1cc(C(F)(F)F)cc(C(F)(F)F)c1)c1cc(Cl)ccc1O | 0.911
CN1CCC(COc2cnc(-c3cccc(Cn4nc(-c5cccc(C#N)c5)ccc4=O)c3)nc2)CC1 | 0.982
CC(C)CC(=O)Nc1n[nH]c2c1CN(C(=O)C1CCN(C)CC1)C2(C)C | 1.09
COc1cc2ncc(-c3ccccc3)nc2cc1OC [Tyrphostin AG 1296] | 0.236
C1=N/C2=N/c3ccc(OCCN4CCCC4)c(c3)COC/C=C/COCc3cccc(c3)C(=C1)N2 [Pacritinib (SB1518)] | 0.456
O=C(NCCO)c1cccc(-c2cc(Nc3ccc(OC(F)(F)F)cc3)ncn2)c1 | 0.709
N#CC(=C(/N)Sc1ccccc1N)/C(C#N)=C(\N)Sc1ccccc1N | 1.06
CN(C)Cc1cccc(N/C(=C2\C(=O)Nc3cc(C(N)=O)ccc32)c2ccccc2)c1 | 0.855
C[C@@H](CN1CC(=O)NC(=O)C1)N1CC(=O)NC(=O)C1 [Dexrazoxane Hydrochloride] | 0.993
COc1ccc(-c2ccc3ncc4c(c3c2)n(-c2ccc(N3CCNCC3)c(C(F)(F)F)c2)c(=O)n4C)cn1 | 0.375
CC(C)(C)c1cnc(CSc2cnc(NC(=O)C3CCNCC3)s2)o1 | 1.03
Cc1c(F)cc(C(=O)NC2CC2)cc1-c1ccc(C(=O)NCC(C)(C)C)cn1 | 0.951

SMILES | cell viability
CCCC1O[C@@H]2C[C@H]3[C@@H]4CCC5=CC(=O)C=C[C@]5(C)[C@H]4[C@@H](O)C[C@]3(C)[C@]2(C(=O)CO)O1 (some centres undefined) [Budesonide] | 0.953
C[C@@H](Oc1cc(-c2cnn(C3CCNCC3)c2)cnc1N)c1c(Cl)ccc(F)c1Cl | 0.816 ± 0.12
O=C1NC(=O)/C(=C/c2ccc3nccc(-c4ccncc4)c3c2)S1 | 0.919
Cc1ccc2nc(NCCN)c3ncc(C)n3c2c1 | 0.69
CC(=O)[C@]1(O)Cc2c(O)c3c(c(O)c2[C@@H](O[C@H]2C[C@H](N)[C@H](O)[C@H](C)O2)C1)C(=O)c1ccccc1C3=O [Idarubicin HCl] | -0.01
NC1(c2ccc(-c3nc4ccn5c(=O)[nH]nc5c4cc3-c3ccccc3)cc2)CCC1 | 0.775
O=C1NC(=O)/C(=C/c2ccc(-c3ccc(F)cc3O)o2)S1 | 1.13
CN(C)CCOc1ccc(-c2nc(-c3ccncc3)c(-c3ccc4c(c3)CC/C4=N\O)[nH]2)cc1 | 0.547
O=C1NC(=O)/C(=C/c2cccc(C(F)(F)F)c2)S1 | 0.704
C=CC(=O)Nc1ccc2ncnc(Nc3cccc(Br)c3)c2c1 | 0.936
COc1cc(F)c(F)c(Nc2ccc(I)cc2F)c1NS(=O)(=O)C1(C[C@H](O)CO)CC1 [Refametinib (RDEA119, Bay 86-9766)] | 0.991
Cc1cc(CN2CCN(c3c(Br)cnc4nc(-c5ccc(N6CCN(C)CC6)cc5)[nH]c34)CC2)no1 | 0.885
Cc1cc(F)c(Nc2ncnc3cc(OCc4ccccc4)ccc23)cc1O | 1.06
CN1CCC(CNc2ccc3ncc(-c4cccc(OC(F)(F)F)c4)n3n2)CC1 [SGI-1776 free base] | 0.8
COc1cc(OC)c(/C=C/S(=O)(=O)Cc2ccc(OC)c(NCC(=O)O)c2)c(OC)c1 | 1.08
COc1ncc(-c2ccc3nccc(-c4ccnnc4)c3c2)cc1NS(=O)(=O)c1ccc(F)cc1F | 0.984
S=C(NCc1ccc2c(c1)OCO2)N1CCN(c2ncnc3c2oc2ccccc23)CC1 [Amuvatinib (MP-470)] | 0.951
OCCn1cc(-c2cnc3nnn(Cc4ccc5ncccc5c4)c3n2)cn1 | 0.954
Cc1c(NC(=O)c2ccc(C(C)(C)C)cc2)cccc1-c1cn(C)c(=O)c(Nc2ccc(C(=O)N3CCOCC3)cc2)n1 | 0.766

Some values from the list:
Entry of CN1CCC(CNc2ccc3ncc(-c4cccc(OC(F)(F)F)c4)n3n2)CC1 [SGI-1776 free base] under cell viability: 0.8
Entry of C[C@@H](Oc1cc(-c2cnn(C3CCNCC3)c2)cnc1N)c1c(Cl)ccc(F)c1Cl under cell viability: 0.816 ± 0.12
Entry of CN(C)CCOc1ccc(-c2nc(-c3ccncc3)c(-c3ccc4c(c3)CC/C4=N\O)[nH]2)cc1 under cell viability: 0.547
